Reference: patent US8912144B2, “Method for treating stroke via administration of NEP1-40 and inosine” (Children's Medical Center Corporation, priority 2003, dated 2014)
The source gives many values for each of these; only a part stands here.

Tested on: corticospinal neurons (CSNs/CSMNs)
Assay: Laser-capture microdissection and Illumina microarray gene expression in corticospinal neurons contralateral to stroke
Format: in vivo, rat
Procedure: In a separate group of animals (n=20), layer V pyramidal cells of the sensorimotor cortex were retrogradely labeled by injecting Alexa-Fluor-488-conjugated cholera toxin B subunit (CTB; 300 U/μl in sterile saline) into the cervical spinal cord. For this, animals were anesthetized with a combination of ketamine and Domitor (medetomidine) and a laminectomy was performed at the cervical level of the spinal cord (C2-C4). CTB was stereotaxically delivered into four sites lateral to the corticospinal tract. Injections (1.3 μl) were spaced 1 mm apart on the rostro-caudal axis, and were made 0.5 mm to the left and right of the midline. After allowing two weeks for transport of the tracer, we performed either sham surgery with no treatment (n=6) or stroke surgery combined with saline (n=3) or inosine (n=4) treatment as described above. Seven days later, animals were decapitated under transient gas anesthesia, brains were removed and rinsed in cold RPMI medium, and a tissue block containing the sensorimotor cortex was dissected and placed in OCT Tissue Tek Medium (Sakura Finetek USA Inc., CA) on dry ice within five minutes of death. Ten μm sections were cut onto precleaned Gold Seal RITE-ON glass slides (Gold Seal Prod-ucts, Portsmouth, N.H.), placed on dry ice, and rapidly stored at −80° C.
Slide-mounted sections were thawed and dehydrated in RNAse-free ethanol gradients and xylene. Retro-gradely labeled, fluorescent cortical pyramidal cells in the undamaged hemisphere were individually captured using the Arcturus VERITAS system. ≧500 cells were collected from each animal and stored in Arcturus extraction buffer at −80° C. Total RNA was extracted from cells using the Micro-to-Midi TotalRNA Purification System (Invitrogen, Carlsbad Calif.) and double-amplified using the TargetAmp 2-Round Aminoallyl-aRNA Amplification kit 1.0 (Epicentre, Madison, Wis.). Amplified RNA was checked for average fragment length using the Agilent RNA 6000 Nano LabChip kit (Agilent Technologies, Santa Clara, Calif.) and then biotinylated and hybridized (1 μg) on Illumina RatRef-12 Expression BeadChip arrays (Illumina, San Diego Calif.), querying the expression of >22,000 RefSeq-curated rat transcripts. Results were obtained from a total of 15 samples representing 6 untreated controls, 4 animals with stroke treated with saline and 5 animals with stroke treated with inosine. Slides were processed and scanned with Illumina BeadStation platform according to the manufacturer protocol.
Raw data was analyzed using Bioconductor packages (www.bioconductor.org, (Gentleman et al., 2004)). Low level quality-control analysis was performed using inter-array Pearson correlation and clustering based on variance. Two arrays (1 saline and 1 inosine-treated) were outliers and were excluded from the analysis. Data was normalized using quantile normalization, and analysis of differential expression was performed using a linear model fitting (LIMMA package, (Smyth, 2005). Differentially expressed genes were classified according to gene ontology using Bioconductor packages and online tools (DAVID, http://david.abcc.ncifcrf.gov/). Pathway analysis was carried out using Ingenuity Pathway Analysis (Ingenuity Systems, www.ingenuity.com).

[1] = 39332 ILMN_56430, septin 7 (Sept7)

Q: For `OC[C@H]1O[C@@H](n2cnc3c(O)ncnc32)[C@H](O)[C@@H]1O` [inosine], which “Fold-Induction Stroke, ino vs. cntrl” value [1] is on record?
A: Its value is 0.35.

Q: And the “Signal Intensity Inosine” value [1]?
A: The value was 226.

Q: What about the “Fold-Induction Stroke, ino vs. cntrl” value (1200013a08rik ILMN_48533) of the same compound?
A: Its value is 1.87.

Q: And the “Signal Intensity Inosine” value (1200013a08rik ILMN_48533)?
A: Its value is 641.

Q: What about the “Fold-Induction Stroke, ino vs. cntrl” value (Ak3 ILMN_61494) of the same compound?
A: Its value is 0.53.

Q: What about the “Signal Intensity Inosine” value (Ak3 ILMN_61494) of the same compound?
A: Its value is 452.

Q: What about the “Fold-Induction Stroke, ino vs. cntrl” value (Arhgef9 ILMN_63975) of the same compound?
A: Its value is 0.37.

Q: And the “Signal Intensity Inosine” value (Arhgef9 ILMN_63975)?
A: Its value is 994.

Q: What about the “Fold-Induction Stroke, ino vs. cntrl” value (Bf ILMN_69719) of the same compound?
A: The value was 2.37.

Q: What about the “Signal Intensity Inosine” value (Bf ILMN_69719) of the same compound?
A: Its value is 1589.

Q: And the “Fold-Induction Stroke, ino vs. cntrl” value (Bnip3 ILMN_56273)?
A: The value was 0.20.

Q: What about the “Signal Intensity Inosine” value (Bnip3 ILMN_56273) of the same compound?
A: Its value is 326.

Q: What about the “Fold-Induction Stroke, ino vs. cntrl” value (Bzrp ILMN_55731) of the same compound?
A: Its value is 2.23.

Q: And the “Signal Intensity Inosine” value (Bzrp ILMN_55731)?
A: Its value is 865.

Q: And the “Fold-Induction Stroke, ino vs. cntrl” value (C1qa ILMN_58496)?
A: The value was 1.70.

Q: And the “Signal Intensity Inosine” value (C1qa ILMN_58496)?
A: Its value is 1561.

Q: What about the “Fold-Induction Stroke, ino vs. cntrl” value (C1s ILMN_55706) of the same compound?
A: The value was 2.19.

Q: And the “Signal Intensity Inosine” value (C1s ILMN_55706)?
A: The value was 668.

Q: And the “Fold-Induction Stroke, ino vs. cntrl” value (Cacna2d1 ILMN_48911)?
A: Its value is 0.27.

Q: And the “Signal Intensity Inosine” value (Cacna2d1 ILMN_48911)?
A: Its value is 1708.

Q: What about the “Fold-Induction Stroke, ino vs. cntrl” value (Ccpg1 ILMN_52890) of the same compound?
A: Its value is 0.41.

Q: And the “Signal Intensity Inosine” value (Ccpg1 ILMN_52890)?
A: The value was 228.

Q: What about the “Fold-Induction Stroke, ino vs. cntrl” value (Cd47 ILMN_64241) of the same compound?
A: The value was 0.26.

Q: What about the “Signal Intensity Inosine” value (Cd47 ILMN_64241) of the same compound?
A: The value was 831.

Q: And the “Fold-Induction Stroke, ino vs. cntrl” value (Cd63 ILMN_67382)?
A: Its value is 2.32.

Q: And the “Signal Intensity Inosine” value (Cd63 ILMN_67382)?
A: Its value is 1687.

Q: What about the “Fold-Induction Stroke, ino vs. cntrl” value (Chc1l ILMN_62729) of the same compound?
A: The value was 1.94.

Q: What about the “Signal Intensity Inosine” value (Chc1l ILMN_62729) of the same compound?
A: The value was 696.

Q: And the “Fold-Induction Stroke, ino vs. cntrl” value (Col1a2 ILMN_52596)?
A: Its value is 2.32.

Q: What about the “Signal Intensity Inosine” value (Col1a2 ILMN_52596) of the same compound?
A: The value was 2071.

Q: And the “Fold-Induction Stroke, ino vs. cntrl” value (Col6a3 ILMN_66976)?
A: The value was 2.15.

Q: And the “Signal Intensity Inosine” value (Col6a3 ILMN_66976)?
A: Its value is 1052.

Q: What about the “Fold-Induction Stroke, ino vs. cntrl” value (Dnase2 ILMN_59943) of the same compound?
A: The value was 2.08.

Q: And the “Signal Intensity Inosine” value (Dnase2 ILMN_59943)?
A: Its value is 778.

Q: What about the “Fold-Induction Stroke, ino vs. cntrl” value (Dscam ILMN_54925) of the same compound?
A: The value was 0.64.

Q: What about the “Signal Intensity Inosine” value (Dscam ILMN_54925) of the same compound?
A: Its value is 227.

Q: What about the “Fold-Induction Stroke, ino vs. cntrl” value (Emp3 ILMN_59412) of the same compound?
A: The value was 2.12.

Q: And the “Signal Intensity Inosine” value (Emp3 ILMN_59412)?
A: Its value is 733.

Q: And the “Fold-Induction Stroke, ino vs. cntrl” value (Fcgr3a ILMN_55414)?
A: The value was 2.55.

Q: What about the “Signal Intensity Inosine” value (Fcgr3a ILMN_55414) of the same compound?
A: Its value is 596.

Q: What about the “Fold-Induction Stroke, ino vs. cntrl” value (Fcgrt ILMN_69907) of the same compound?
A: Its value is 1.88.

Q: What about the “Signal Intensity Inosine” value (Fcgrt ILMN_69907) of the same compound?
A: The value was 1201.

Q: What about the “Fold-Induction Stroke, ino vs. cntrl” value (Gars ILMN_61248) of the same compound?
A: Its value is 0.41.

Q: And the “Signal Intensity Inosine” value (Gars ILMN_61248)?
A: Its value is 1274.

Q: What about the “Fold-Induction Stroke, ino vs. cntrl” value (Gda ILMN_65816) of the same compound?
A: The value was 0.44.

Q: What about the “Signal Intensity Inosine” value (Gda ILMN_65816) of the same compound?
A: Its value is 1087.

Q: What about the “Fold-Induction Stroke, ino vs. cntrl” value (Glg1 ILMN_68750) of the same compound?
A: The value was 0.50.

Q: And the “Signal Intensity Inosine” value (Glg1 ILMN_68750)?
A: The value was 226.

Q: And the “Fold-Induction Stroke, ino vs. cntrl” value (Gp38 ILMN_58188)?
A: The value was 1.74.

Q: What about the “Signal Intensity Inosine” value (Gp38 ILMN_58188) of the same compound?
A: The value was 5501.

Q: And the “Fold-Induction Stroke, ino vs. cntrl” value (Icam1 ILMN_61139)?
A: Its value is 2.46.

Q: What about the “Signal Intensity Inosine” value (Icam1 ILMN_61139) of the same compound?
A: Its value is 761.

Q: And the “Fold-Induction Stroke, ino vs. cntrl” value (Irf1 ILMN_53085)?
A: Its value is 1.76.

Q: What about the “Signal Intensity Inosine” value (Irf1 ILMN_53085) of the same compound?
A: Its value is 1048.

Q: And the “Fold-Induction Stroke, ino vs. cntrl” value (Irf5 ILMN_66407)?
A: Its value is 2.25.

Q: And the “Signal Intensity Inosine” value (Irf5 ILMN_66407)?
A: The value was 662.

Q: What about the “Fold-Induction Stroke, ino vs. cntrl” value (Jak3 ILMN_63407) of the same compound?
A: The value was 2.17.

Q: And the “Signal Intensity Inosine” value (Jak3 ILMN_63407)?
A: The value was 1204.

Q: What about the “Fold-Induction Stroke, ino vs. cntrl” value (LOC287596 ILMN_65519) of the same compound?
A: Its value is 0.49.

Q: What about the “Signal Intensity Inosine” value (LOC287596 ILMN_65519) of the same compound?
A: Its value is 330.

Q: What about the “Fold-Induction Stroke, ino vs. cntrl” value (LOC290851 ILMN_52399) of the same compound?
A: The value was 1.60.

Q: What about the “Signal Intensity Inosine” value (LOC290851 ILMN_52399) of the same compound?
A: Its value is 1691.

Q: And the “Fold-Induction Stroke, ino vs. cntrl” value (LOC293566 ILMN_66756)?
A: The value was 2.35.

Q: And the “Signal Intensity Inosine” value (LOC293566 ILMN_66756)?
A: Its value is 541.

Q: And the “Fold-Induction Stroke, ino vs. cntrl” value (LOC302671 ILMN_50309)?
A: Its value is 0.61.

Q: What about the “Signal Intensity Inosine” value (LOC302671 ILMN_50309) of the same compound?
A: The value was 919.

Q: What about the “Fold-Induction Stroke, ino vs. cntrl” value (LOC303731 ILMN_62940) of the same compound?
A: Its value is 1.98.

Q: What about the “Signal Intensity Inosine” value (LOC303731 ILMN_62940) of the same compound?
A: The value was 619.

Q: And the “Fold-Induction Stroke, ino vs. cntrl” value (LOC309014 ILMN_60231)?
A: Its value is 0.58.

Q: And the “Signal Intensity Inosine” value (LOC309014 ILMN_60231)?
A: Its value is 232.

Q: And the “Fold-Induction Stroke, ino vs. cntrl” value (LOC311236 ILMN_59008)?
A: Its value is 0.47.

Q: What about the “Signal Intensity Inosine” value (LOC311236 ILMN_59008) of the same compound?
A: Its value is 1008.

Q: What about the “Fold-Induction Stroke, ino vs. cntrl” value (LOC315776 ILMN_50631) of the same compound?
A: Its value is 1.48.

Q: And the “Signal Intensity Inosine” value (LOC315776 ILMN_50631)?
A: Its value is 718.

Q: What about the “Fold-Induction Stroke, ino vs. cntrl” value (LOC361594 ILMN_52177) of the same compound?
A: The value was 1.90.

Q: And the “Signal Intensity Inosine” value (LOC361594 ILMN_52177)?
A: Its value is 880.

Q: And the “Fold-Induction Stroke, ino vs. cntrl” value (LOC497712 ILMN_50828)?
A: Its value is 0.43.

Q: And the “Signal Intensity Inosine” value (LOC497712 ILMN_50828)?
A: The value was 314.

Q: And the “Fold-Induction Stroke, ino vs. cntrl” value (LOC498726 ILMN_51854)?
A: The value was 0.46.
